# PubChem BioAssay AID1259405 – NCATS | 2018
# Aim: 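Mouse-designed siRNAs used to find CHO productivity engineering targets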 (primary screen)
# System: Chinese hamster CHO-K1 ovary cells with stable secreted eGFP expression
# Reagent: single siRNA against mouse genes, 0.8 pmol siRNA per well (2 µl of 400 nM stock)
# Timing: 3 days
# Measurement: 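Per-well intracellular GFP measured by laser scanning cytometry, plus viability from ATP luminescence, each relative to plate median of non-targeting control wells, in %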
# Direction: GFP, % of control: higher = more GFP per well, higher productivity; viability (ATP), % of control: higher = more viable cells (more ATP)
# Rule for the call: 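Called active when intracellular GFP, relative to negative control, is at or above 120%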
# Here is a random part of about 50,000 reagents. About 4,000 of all reagents (8%) count as active. 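Mouse siRNA library applied to hamster cells; one well for each siRNA.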 The numbers tell different reagents against one gene apart. No sequences are given here.
gene,reagent no.,"GFP, % of control","viability (ATP), % of control",Outcome
Grk2,1,96.3,87.3,inactive
Sestd1,1,86.9,70.2,inactive
Sestd1,2,74.6,97.8,inactive
Sestd1,3,73.4,74.8,inactive
Rab18,1,136,95.8,active
Rab18,2,110,90.6,inactive
Rab18,3,106,123,inactive
Ints8,1,45.8,58.8,inactive
Ints8,2,49.3,58,inactive
Ints8,3,75.4,73.3,inactive
Mdk,1,27.9,40.9,inactive
Mdk,2,87.2,67.7,inactive
Mdk,3,28.3,74.2,inactive
Dmtf1l,1,52.9,39.5,inactive
Dmtf1l,2,48.2,41,inactive
Dmtf1l,3,77.6,82.4,inactive
Abca12,1,74.5,94.2,inactive
Abca12,2,74.7,68.5,inactive
Abca12,3,72.7,102,inactive
Aimp2,1,57.5,76.2,inactive
Aimp2,2,71.6,75,inactive
Aimp2,3,78.6,83.7,inactive
Tacr2,1,77.6,73.6,inactive
Tacr2,2,89.6,71.4,inactive
Tacr2,3,77.2,82.9,inactive
Cpa6,1,65.6,73.3,inactive
Cpa6,2,98.3,88.2,inactive
Cpa6,3,87.3,82.1,inactive
Styx,1,82.3,78.5,inactive
Styx,2,110,78.6,inactive
D630004N19Rik,1,53.4,62.3,inactive
D630004N19Rik,2,116,71.1,inactive
D630004N19Rik,3,94.8,88.5,inactive
Tbpl1,1,68.1,72.1,inactive
Tbpl1,2,66.7,79.2,inactive
Tbpl1,3,68.9,93.6,inactive
Eif1ax,1,81.4,89.2,inactive
Eif1ax,2,45.5,55,inactive
Eif1ax,3,79,77.9,inactive
Ckmt2,1,70.9,72.4,inactive
Padi4,1,137,88.3,active
Padi4,2,117,76.4,inactive
Padi4,3,28.3,45.6,inactive
Pcsk7,1,97.2,99.1,inactive
Pcsk7,2,99.1,95,inactive
Pcsk7,3,29.4,38.6,inactive
Zfp763,1,44.3,54.3,inactive
Zfp763,2,70.9,66.9,inactive
Zfp763,3,86,78.4,inactive
Zfp85os,1,112,90.1,inactive
Zfp85os,2,58.3,61.4,inactive
Zfp85os,3,105,124,inactive
Gzmf,1,111,116,inactive
Gzmf,2,74,53.9,inactive
Gzmf,3,74.5,70.6,inactive
Synm,1,38.1,35.9,inactive
Synm,2,64.2,77.6,inactive
Synm,3,54.2,70,inactive
Rlbp1,1,96.2,97.5,inactive
Rlbp1,2,41.2,64.7,inactive
Rlbp1,3,87.2,75.7,inactive
Ktn1,1,55.6,64.9,inactive
Ktn1,2,98.6,59.9,inactive
Ktn1,3,24.4,28.7,inactive
Adcy3,1,71.5,92.4,inactive
Adcy3,2,66.9,95,inactive
Adcy3,3,77,83.6,inactive
Enpp7,1,92,114,inactive
Enpp7,2,117,72.3,inactive

Sorted by “GFP, % of control” (highest first): 7 of the entries above.
gene,reagent no.,"GFP, % of control","viability (ATP), % of control",Outcome
Eif1ax,1,81.4,89.2,inactive
Eif1ax,3,79,77.9,inactive
Ckmt2,1,70.9,72.4,inactive
Tbpl1,3,68.9,93.6,inactive
Tbpl1,1,68.1,72.1,inactive
Tbpl1,2,66.7,79.2,inactive
Eif1ax,2,45.5,55,inactive

The list goes on:
gene,reagent no.,"GFP, % of control","viability (ATP), % of control",Outcome
Saa2,1,68.3,34.5,inactive
Saa2,2,78.5,53,inactive
Saa2,3,89.9,89.1,inactive
Slc22a26,1,32,45,inactive
Slc22a26,2,52.1,71.3,inactive
Slc22a26,3,80.4,50.5,inactive
Pknox1,1,111,95.7,inactive
Pknox1,2,75.5,98.4,inactive
Pknox1,3,76.6,89.6,inactive
Pmis2,1,76.4,84,inactive
Pmis2,2,81.2,72.5,inactive
Pmis2,3,67.1,92,inactive
Or2m12,1,63.1,80.6,inactive
Or2m12,2,87.4,72.3,inactive
Or2m12,3,75.8,96.5,inactive
Usp3,1,67.8,83.8,inactive
Usp3,2,38,32.2,inactive
Usp3,3,74.1,56.4,inactive
Cxcl3,1,42.6,56.8,inactive
Cxcl3,2,55.5,39.6,inactive
Cxcl3,3,34.5,37.9,inactive
Pbld1,1,51.2,34,inactive
Pbld1,2,96.8,80.5,inactive
Pbld1,3,83.7,85,inactive
Rasal3,1,150,67.9,active
Rasal3,2,88.7,70.1,inactive
Rasal3,3,74.2,42.7,inactive
Trmt10c,1,116,77.9,inactive
Trmt10c,2,107,103,inactive
Trmt10c,3,47.7,54.7,inactive
A930104D05Rik,1,53.8,45.4,inactive
A930104D05Rik,2,34.2,22,inactive
A930104D05Rik,3,80.5,87.6,inactive
Rps3,1,60.5,84.9,inactive
Rps3,2,21.9,16.4,inactive
Rps3,3,118,61.6,inactive
Clnk,1,77.8,61.5,inactive
Clnk,2,78.1,60.6,inactive
Clnk,3,78.3,44.5,inactive
